# Some of these results come from one statement about several compounds together.
# Test system: seven human tumor cell lines
# Assay: Cytotoxicity against seven human tumor cell lines (panel)
# Assay type: cell-based
# Details: most of the seven human tumor cell lines
# Procedure: Cytotoxic assays were performed as described in L. Rubinstein et al., J. Natl. Cancer Inst.
row,Compound,ED50 against most tested cell lines
1,"O=C(O)Cc1cccc2c1N=C(c1ccccc1F)CC2=O [Compound 12, 2-(2′-Fluorophenyl)-4-quinolone-8-acetic acid]",less than 0.1 μg/mL
2,"O=C(O)Cc1cccc2c1N=C(c1ccccc1)CC2=O [Compound 11, 2-Phenyl-4-quinolone-8-acetic acid]",less than 0.1 μg/mL

# Same assay, conditions: seven human tumor cell lines: epidermoid, bone, ovarian, glioblastoma, melanoma, lung, breast
row,Compound,cytotoxicity in vitro (in words)
1,O=C(O)Cc1cccc2nc(-c3ccccc3F)cc(O)c12 [Compound 2],moderate cytotoxicity
2,COC(=O)Cc1cccc2c(O)cc(-c3ccccc3F)nc12 [Compound 10],moderate cytotoxicity
3,O=C(O)Cc1ccc2c(O)cc(-c3ccccc3F)nc2c1 [Compound 4],moderate cytotoxicity
4,"COC(=O)Cc1cccc2c(O)cc(-c3ccccc3)nc12 [Compound 9, 2-Phenyl-4-quinolone-8-methyl acetate]",moderate cytotoxicity

# From US6916831B2, “Flavone acetic acid analogs and methods of use thereof” (The University of North Carolina at Chapel Hill, priority 2003, dated 2005)
